Measurements reported in PubChem BioAssay AID2685 (National Center for Advancing Translational Sciences (NCATS), 2010).
This is one part of the list. Shown are side measurements of this screen, not its main read-out; they come without a call. Compounds called inactive in the main read-out are mostly missing here. The note in brackets gives the kind of curve behind each potency; many fits are weak.

Assay: qHTS Assay for Lipid Storage Modulators in Drosophila S3 Cells;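 as to cell number change: cells counted by Cell Tracker Red CMTPX staining in the red channel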
Settings: BODIPY lipid droplet fluorescence, 18-24 h; for cell number change: measured here: cell count max response, cells fed with added oleic acid
Procedure, shortened: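 Laser-scanning cytometry quantifies lipid droplet accumulation (500–530 nm total intensity; droplet/cell object ratio) in oleic acid-fed (400 uM added) Drosophila S3 cells treated with a concentration series. 20 uM Triacsin C defined 100% inhibition.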

[1] = measured here: lipid fluorescence (Fed channel) AC50, cells fed with added oleic acid
[2] = measured here: cell number channel AC50, cells fed with added oleic acid

Row | Compound | cell number change | AC50 [1] | AC50 [2]
1 | Cc1cc(C(=O)N/N=C2\CCCC(C)C2)n[nH]1 (stereo unspecified) | 14.4% | 18.4 µM [falling, single point] | –
2 | Cc1ccc(SCC(=O)OCC(=O)NCC2CCCCC2)cc1C | 1.51% | 23.1 µM [falling, single point] | –
3 | Cc1ccsc1/C=N/NC(=O)CNC(=O)c1ccc(S(=O)(=O)N(C)C)cc1 | -21.2% | 0.164 µM [falling, full curve, poor fit] | 0.146 µM [falling, full curve, poor fit]
4 | O=c1c2cc(Br)ccc2nc(-c2cccc(Cl)c2)n1O | -28.7% | 32.6 µM [falling, single point] | –
5 | CC1(C)CC(=O)C2=C(C1)NC(SCC(=O)Nc1ccccc1)=C(C#N)C2c1ccco1 (stereo unspecified) | -19.1% | 0.58 µM [rising, partial curve] | –
6 | Cc1cc(=O)oc2c3c(cc(OCC(=O)NC(C)C)c12)OC(C)(C)CC3 | 7.83% | 0.13 µM [falling, full curve, poor fit] | –
7 | CCOC(=O)C1=C(C)NC(C)=C(C(=O)OCC)C1C(=O)OCC(=O)N(C)C1CCS(=O)(=O)C1 (stereo unspecified) | -27.5% | – | –
8 | Cc1cccc2c1cnn2C(=O)Nc1ccc(Br)cc1F | 48.6% | 29.1 µM [rising, single point] | 2.91 µM [rising, partial curve]
9 | COc1ccc(Nc2cc3n(c(=O)n2)CCc2cc(OC)c(OC)cc2-3)c(C)c1 | -1.39% | 3.66 µM [rising, partial curve] | –
10 | O=C1CCc2cc(S(=O)(=O)NC(Cc3ccccc3)C(=O)NCC3CCCO3)ccc2N1 (stereo unspecified) | 11% | 9.2 µM [rising, partial curve, poor fit] | –
11 | Cc1cccc(NS(=O)(=O)c2ccc(C)c(C(=O)N(C)C3CCN(C)CC3)c2)c1 | – | 8.2 µM [rising, partial curve] | –
12 | COc1ccc(NC(=O)c2sccc2SCC#N)cc1 | – | – | 1.3 µM [rising, partial curve]
13 | COc1cc(NC(=O)CN2C(=O)NC(C)(CCC(C)C)C2=O)cc(OC)c1 (stereo unspecified) | 44.9% | – | 16.4 µM [rising, partial curve]
14 | O=C(O)COc1ccc(Br)cc1/C=N\Nc1ccccn1 | -8.77% | – | 2.31 µM [falling, single point]
15 | CCCCOC(=O)c1ccc(NC(=O)/C=C/c2cccs2)cc1 | -17.6% | – | –
16 | Clc1ccc(OCc2nn[nH]n2)cc1 | 19.6% | 2.91 µM [falling, single point] | –
17 | COc1ccc(-c2[nH]ncc2CN(C)Cc2cccnc2)c(OC)c1 | 21.6% | 3.26 µM [rising, partial curve] | –
18 | CCOC(=O)N1CCN(S(=O)(=O)c2ccc(OC)c3ccccc23)CC1 | -38.1% | – | 29.1 µM [falling, single point]
19 | CC(=O)NC1CCCc2c1cnn2-c1ccc(C(C)(C)C)cc1 (stereo unspecified) | -48.6% | – | 13 µM [falling, partial curve]
20 | COC(=O)[C@H](Cc1ccccc1)NC(=O)NCc1ccc(S(N)(=O)=O)cc1 | 0.934% | – | –
21 | Cc1cc(CNC(=O)Cc2c(F)cccc2Cl)nn1C | 8.89% | 6.51 µM [falling, single point] | –

Row | Compound | cell number change | AC50 [1] | AC50 [2]
22 | Cc1ccc(S(=O)(=O)N(C)C)cc1NC(=O)C(C)OC(=O)c1ccc2ccccc2n1 (stereo unspecified) | 10.7% | 6.51 µM [rising, single point] | –
23 | c1ccc(-c2nn3c(-c4ccco4)nnc3s2)nc1 | 7.95% | 6.51 µM [falling, single point] | –
24 | COc1cc(C)c(NC(=S)Nc2ccc(C)c(Cl)c2)cc1OC | 21.9% | 14.6 µM [rising, single point] | –
25 | CCOc1ccc(S(=O)(=O)NNC(=O)c2cc3ccccc3o2)cc1 | -18.7% | 3.66 µM [falling, single point] | –
26 | CN1CCN(c2ccc(NC(=S)NC(=O)/C=C/c3ccco3)cc2)CC1 | 5.24% | – | –
27 | COc1ccc(C(=O)Nc2ccc(Cl)cc2C(=O)NCCO)cc1 | -15% | 11.6 µM [rising, partial curve] | –
28 | CSc1ccc(OCC(=O)Nc2ccc(N3CCOCC3)c(Cl)c2)cc1 | -20.4% | 29.1 µM [falling, single point] | –
29 | C=CCN=C1N[C@@H](c2ccc(Br)cc2)C(C(=O)OC)=C(C)N1Cc1ccccc1 | 3.06% | 0.259 µM [falling, full curve, poor fit] | –
30 | COc1ccc2sc(NC(=O)NC(=O)c3c(Cl)cccc3Cl)nc2c1 | -5.06% | 0.00461 µM [falling, full curve, poor fit] | –
31 | CCC(C(=O)OCC(=O)Nc1c(C)n(C)n(-c2ccccc2)c1=O)c1ccccc1 (stereo unspecified) | -129% | 0.164 µM [falling, full curve, poor fit] | –
32 | CCOC(=O)c1ccc(N2CCCCC2)c(NS(=O)(=O)c2cccc(C(F)(F)F)c2)c1 | 11.4% | 14.6 µM [rising, partial curve, poor fit] | –
33 | CCN1C(=O)C2(C(C#N)=C(N)Oc3c2c(C)nn3-c2ccccc2)c2ccccc21 (stereo unspecified) | 4.23% | 2.31 µM [rising, partial curve] | –
34 | COc1cc(C(=O)NCC(=O)NC(C)c2ccc(-n3ccnc3)cc2)cc(OC)c1OC (stereo unspecified) | -13.8% | – | –
35 | CCN(Cc1ccccc1)C(=O)c1ccc(C(=O)N(CC)Cc2ccccc2)cc1 | -30.1% | – | 13 µM [falling, single point]
36 | O=C(CNC(c1ccccc1)c1ccccc1)Nc1ccccc1F | -2.56% | 0.116 µM [rising, single point] | –
37 | COC(=O)c1c(-c2ccc(OC)cc2)oc2ccccc12 | 18.1% | – | –
38 | CCc1nc2sc(C(C)=O)c(N)c2c2c1CCCC2 | 13.2% | 2.59 µM [rising, partial curve, poor fit] | 6.51 µM [rising, single point]
39 | O=C(Nc1nc2c(s1)CN(Cc1ccccc1)CC2)c1cccc(S(=O)(=O)N2CCc3ccccc32)c1 | -77% | 0.731 µM [falling, full curve] | 2.91 µM [falling, partial curve]
40 | Nc1nn(S(=O)(=O)c2ccccc2)cc1-c1ccc([N+](=O)[O-])cc1 | 32.3% | 1.46 µM [rising, single point] | 3.26 µM [rising, partial curve]
41 | Cc1cc([N+](=O)[O-])nn1Cc1ccc(C(=O)N/N=C/c2ccc(N(C)C)cc2)cc1 | – | 0.58 µM [rising, full curve, poor fit] | –
42 | CCCNC(=O)CCc1c(C)nc2c(c(C)nn2-c2ccc(C)cc2)c1C | -4.84% | 1.3 µM [rising, full curve] | –

Row | Compound | cell number change | AC50 [1] | AC50 [2]
43 | Cc1cccc(CCNC(=O)c2cccc3c2C(=O)N(C2CCCCC2)C3)c1 | 12.2% | 23.1 µM [rising, partial curve, poor fit] | –
44 | O=C(NC1CCCCC1)N1CCC(n2c(=O)[nH]c3ccccc32)CC1 | -14% | 0.116 µM [falling, full curve, poor fit] | –
45 | Cc1cc(C)n(CCC(=O)N2CCN(S(=O)(=O)c3ccc(C)c(C)c3)CC2)n1 | -0.435% | – | –
46 | CC1CCCCC12NC(=O)N(CC(=O)N1CCN(S(=O)(=O)Cc3ccccc3)CC1)C2=O (stereo unspecified) | 32.9% | 29.1 µM [rising, single point] | 29.1 µM [rising, single point]
47 | CC(/C=C/c1ccccc1)=N\NC(=O)c1ccc2c(c1)OCCO2 | 19.6% | 1.84 µM [rising, partial curve] | –
48 | O=C(NCCc1ccc(Cl)cc1Cl)c1cc([N+](=O)[O-])c[nH]c1=O | -10.1% | 6.51 µM [falling, single point] | –
49 | COC(=O)c1c(NC(=O)CC2SCC(C(=O)OC)NC2=O)sc2c1CCCC2 (stereo unspecified) | 46.9% | – | 2.06 µM [rising, full curve, poor fit]
50 | OC(c1ccc(Cl)cc1)c1nccc2ccccc12 (stereo unspecified) | -0.587% | – | –
51 | CCN(Cc1ccccc1)C(c1cc2cc(C)cc(C)c2[nH]c1=O)c1nnnn1CCOC (stereo unspecified) | -47.3% | 20.6 µM [falling, partial curve] | 16.4 µM [falling, partial curve]
52 | CC1CCN(CC(=O)Nc2ccc(S(=O)(=O)N3CCC(C)CC3)cc2)CC1 | 2.11% | – | –
53 | O=C(O)CN1C(=O)/C(=C/c2ccc(N3CCCCC3)o2)SC1=S | -95.4% | 23.1 µM [falling, partial curve] | 20.6 µM [falling, partial curve]
54 | Cc1ccc(N=C2NC(=O)/C(=C/C=C/c3ccco3)S2)cc1C | 4.6% | 0.92 µM [falling, full curve, poor fit] | –
55 | CCOC(=O)c1c(C)[nH]c(C(=O)COC(=O)C2CC2)c1C | 22.1% | – | –
56 | CCOC(=O)CNC(=O)CSc1nc2ncc(Br)cc2[nH]1 | 12.7% | 0.092 µM [falling, single point] | –
57 | Cc1cc(C(=O)OCC(=O)NCc2ccc3c(c2)OCO3)c2ccccc2n1 | -25.1% | – | –
58 | CC(C)c1ccc2oc(-c3ccc(N)cc3)nc2c1 | -40.1% | 32.6 µM [falling, single point] | 16.4 µM [falling, partial curve, poor fit]
59 | Cc1ccc(/C=C/C(=O)OCC(=O)NCc2ccccc2)o1 | -2.41% | – | –
60 | CCOC(=O)C1=C(C)Nc2ccccc2N/C1=N\S(=O)(=O)c1cccc(Cl)c1 | -23.2% | 4.61 µM [rising, partial curve, poor fit] | –
61 | COc1ccc(/C=N/Nc2ccc([N+](=O)[O-])cc2)cc1O | -19.2% | 29.1 µM [falling, single point] | –
